Assay results from patent publication US10759740B2, “Antibacterial agents” (Rutgers, The State University of New Jersey, priority 2016, dated 2020).

Columns and labels:
[1] = tested on: Human foreskin fibroblast (HFF) cells; assay type: cell-based; conditions: for S.I. G− (IC50/MIC): IC50/MIC using E. coli; for S.I. G+ (IC50/MIC): IC50/MIC using S. aureus
Description: HFFs were cultured in DMEM supplemented with 10% fetal bovine serum, 1% penicillin/streptomycin and plated at a concentration of 10,000 cells/well in 96-well plate. Plates were incubated at 37° C. and 5% CO2 for 24 h to allow cell attachment prior to use.
CAMs were tested for cytotoxicity against HFFs using a tetrazolium-based colorimetric assay (MTT). CAMs were first dissolved in ddH2O and then diluted in cell medium (DMEM supplemented with 1% penicillin/streptomycin) to reach concentrations of 15.6, 3.9, and 0.95 μg/mL. 100 μL cell media containing CAMs were then added to allocated wells in a 96-well plate. Cells treated with only 1% Triton X-100 and cell medium were used as positive and negative controls, respectively. After 24 h incubation, the medium was removed and replaced with fresh medium. 20 μL of MTT reagent (12 mM in PBS) was then added to each well and further incubated for 4 h at 37° C. Formazan crystals were subsequently dissolved in 100 μL acidified SDS solution at 37° C. for 4 h. […] The following is used to calculate the percent of cell viability of HFFs: […]

[2] = tested on: Human red blood cells (RBCs); conditions: for S.I. G− (HC50/MIC): HC50/MIC using E. coli; for S.I. G+ (HC50/MIC): HC50/MIC using S. aureus

With `CCCCCCCCCCOC(C(=O)NCCN)C(OCCCCCCCCCC)C(=O)NCCN.Cl.Cl` (centres unmarked) [5b] the “S.I. G− (IC50/MIC)” value [1] was 1.4, the “S.I. G+ (IC50/MIC)” value [1] was 5.9 and the “S.I. G− (HC50/MIC)” value [2] was 17. The “S.I. G+ (HC50/MIC)” value [2] was 68.
`CCCCCCCCCCCCOC(C(=O)NCCN)C(OCCCCCCCCCCCC)C(=O)NCCN.Cl.Cl` (centres unmarked) [5c] was tested, and the “S.I. G+ (HC50/MIC)” value [2] was over 64.
With `CCCCCCCC(=O)OC(C(=O)NCCN)C(OC(=O)CCCCCCC)C(=O)NCCN.Cl.Cl` (centres unmarked) [8a] the “S.I. G− (IC50/MIC)” value [1] was 0.9, the “S.I. G+ (IC50/MIC)” value [1] was 1.8 and the “S.I. G− (HC50/MIC)” value [2] was 2. The “S.I. G+ (HC50/MIC)” value [2] was 4.
`CCCCCCCCCC(=O)OC(C(=O)NCCN)C(OC(=O)CCCCCCCCC)C(=O)NCCN.Cl.Cl` (centres unmarked) [8b] was tested, and the “S.I. G− (IC50/MIC)” value [1] was 1.7, the “S.I. G+ (IC50/MIC)” value [1] was 7.3 and the “S.I. G− (HC50/MIC)” value [2] was 11. The “S.I. G+ (HC50/MIC)” value [2] was 43.
`CCCCCCCCCCCC(=O)OC(C(=O)NCCN)C(OC(=O)CCCCCCCCCCC)C(=O)NCCN.Cl.Cl` (centres unmarked) [8c] was tested, and the “S.I. G+ (HC50/MIC)” value [2] was over 16.
